Protein sequences, listed by entry. Tags and fused reporters are not part of them. Lines headed by an entry give the natural chain unless they say otherwise; changes in a name come on top.
UniProt P49840: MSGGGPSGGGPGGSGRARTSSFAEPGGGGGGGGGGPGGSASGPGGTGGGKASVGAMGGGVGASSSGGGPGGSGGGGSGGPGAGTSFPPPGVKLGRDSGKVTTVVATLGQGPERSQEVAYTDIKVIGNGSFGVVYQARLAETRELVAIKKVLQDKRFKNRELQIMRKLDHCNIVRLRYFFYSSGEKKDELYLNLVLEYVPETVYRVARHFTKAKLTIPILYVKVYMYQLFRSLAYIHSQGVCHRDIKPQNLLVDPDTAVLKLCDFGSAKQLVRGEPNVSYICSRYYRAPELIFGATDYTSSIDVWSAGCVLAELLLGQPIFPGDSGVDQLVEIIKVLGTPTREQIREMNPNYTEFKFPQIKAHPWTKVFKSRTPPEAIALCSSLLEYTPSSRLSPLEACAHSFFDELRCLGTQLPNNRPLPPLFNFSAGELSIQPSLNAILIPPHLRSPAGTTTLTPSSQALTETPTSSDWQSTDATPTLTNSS

In ChEMBL document CHEMBL1136434, “5-aryl-pyrazolo[3,4-b]pyridazines: potent inhibitors of glycogen synthase kinase-3 (GSK-3)” (Bioorg Med Chem Lett, 2003):

Biological target: Glycogen synthase kinase-3 alpha (Homo sapiens, UniProt P49840)

CCCC(=O)Nc1n[nH]c2nnc(-c3ccccc3)cc12
IC50: 4 nM
